In PMC4278290:
Results are given in words; binding and its absence hold for the method and conditions named. In cells and extracts the contact can be indirect. Binding calls can cover weak binding; strength is not graded here. Tags and fused reporters may be left off the sequences shown.

T1: EFEMP1 carrying a FLAG tag at the C-terminus (E-CF) (human) (UniProt Q12805)
T1 sequence: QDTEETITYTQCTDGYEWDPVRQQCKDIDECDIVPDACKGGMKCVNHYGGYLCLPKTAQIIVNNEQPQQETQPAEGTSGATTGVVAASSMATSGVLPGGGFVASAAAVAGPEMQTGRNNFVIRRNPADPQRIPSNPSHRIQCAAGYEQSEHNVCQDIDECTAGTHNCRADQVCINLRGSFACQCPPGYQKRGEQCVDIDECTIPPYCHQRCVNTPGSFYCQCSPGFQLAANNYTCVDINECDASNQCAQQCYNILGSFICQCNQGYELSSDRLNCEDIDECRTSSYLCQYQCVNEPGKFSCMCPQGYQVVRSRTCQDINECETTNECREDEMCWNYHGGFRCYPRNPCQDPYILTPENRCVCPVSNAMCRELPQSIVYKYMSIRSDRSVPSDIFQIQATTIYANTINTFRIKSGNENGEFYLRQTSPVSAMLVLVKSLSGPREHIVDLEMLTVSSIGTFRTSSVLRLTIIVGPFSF

T2: EFEMP1 carrying a FLAG tag at the N-terminus (E-NF) (human) (UniProt Q12805)
T2 sequence: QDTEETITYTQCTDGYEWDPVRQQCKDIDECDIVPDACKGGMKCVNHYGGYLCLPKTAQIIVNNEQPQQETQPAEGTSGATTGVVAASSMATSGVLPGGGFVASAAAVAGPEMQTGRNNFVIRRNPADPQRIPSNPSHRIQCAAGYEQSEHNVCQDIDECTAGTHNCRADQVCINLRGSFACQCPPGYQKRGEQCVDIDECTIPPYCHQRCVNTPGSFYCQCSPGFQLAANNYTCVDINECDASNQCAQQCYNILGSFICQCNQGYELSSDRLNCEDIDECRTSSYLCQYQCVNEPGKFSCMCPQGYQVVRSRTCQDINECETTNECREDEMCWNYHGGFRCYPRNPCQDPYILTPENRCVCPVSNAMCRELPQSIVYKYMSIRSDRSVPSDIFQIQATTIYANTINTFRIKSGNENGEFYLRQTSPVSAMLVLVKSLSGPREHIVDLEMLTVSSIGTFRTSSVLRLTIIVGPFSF


Tests used:
[1] = target: T1, EFEMP1 carrying a FLAG tag at the C-terminus (E-CF) (human); experiment: co-IP; whole-cell lysates in RIPA buffer (~500 ug protein in 260 ul) of U251 stable EFEMP1 transfectants; precipitated with 40 ul mouse anti-FLAG M2 affinity gel, 4 °C overnight; immunoblot for EGFR and FLAG; mouse IgG agarose as negative control
[2] = target: T2, EFEMP1 carrying a FLAG tag at the N-terminus (E-NF) (human); experiment: as above
[3] = target: EGFR (human (endogenous in U251)) (UniProt P00533); experiment: co-IP; whole-cell lysates in RIPA buffer (~500 ug protein in 260 ul) of U251 stable EFEMP1 transfectants; precipitated with 5 ug rabbit anti-EGFR antibody and protein A/G beads, 4 °C overnight; immunoblot for EFEMP1 and FLAG; rabbit IgG agarose as negative control

binding [1]	binding [2]	binding [3]	Molecule
binds	binds	–	EGFR (from UniProt P00533) (receptor)
–	–	binds	EFEMP1 carrying a FLAG tag at the C-terminus (E-CF) (protein, UniProt Q12805 18-493) QDTEETITYTQCTDGYEWDPVRQQCKDIDECDIVPDACKGGMKCVNHYGGYLCLPKTAQIIVNNEQPQQETQPAEGTSGATTGVVAASSMATSGVLPGGGFVASAAAVAGPEMQTGRNNFVIRRNPADPQRIPSNPSHRIQCAAGYEQSEHNVCQDIDECTAGTHNCRADQVCINLRGSFACQCPPGYQKRGEQCVDIDECTIPPYCHQRCVNTPGSFYCQCSPGFQLAANNYTCVDINECDASNQCAQQCYNILGSFICQCNQGYELSSDRLNCEDIDECRTSSYLCQYQCVNEPGKFSCMCPQGYQVVRSRTCQDINECETTNECREDEMCWNYHGGFRCYPRNPCQDPYILTPENRCVCPVSNAMCRELPQSIVYKYMSIRSDRSVPSDIFQIQATTIYANTINTFRIKSGNENGEFYLRQTSPVSAMLVLVKSLSGPREHIVDLEMLTVSSIGTFRTSSVLRLTIIVGPFSF
–	–	binds	EFEMP1 carrying a FLAG tag at the N-terminus (E-NF) (protein, UniProt Q12805 18-493) QDTEETITYTQCTDGYEWDPVRQQCKDIDECDIVPDACKGGMKCVNHYGGYLCLPKTAQIIVNNEQPQQETQPAEGTSGATTGVVAASSMATSGVLPGGGFVASAAAVAGPEMQTGRNNFVIRRNPADPQRIPSNPSHRIQCAAGYEQSEHNVCQDIDECTAGTHNCRADQVCINLRGSFACQCPPGYQKRGEQCVDIDECTIPPYCHQRCVNTPGSFYCQCSPGFQLAANNYTCVDINECDASNQCAQQCYNILGSFICQCNQGYELSSDRLNCEDIDECRTSSYLCQYQCVNEPGKFSCMCPQGYQVVRSRTCQDINECETTNECREDEMCWNYHGGFRCYPRNPCQDPYILTPENRCVCPVSNAMCRELPQSIVYKYMSIRSDRSVPSDIFQIQATTIYANTINTFRIKSGNENGEFYLRQTSPVSAMLVLVKSLSGPREHIVDLEMLTVSSIGTFRTSSVLRLTIIVGPFSF
